Measured values reported in patent US20260125647A1, “AGE-MODULATING COMPOUNDS AND METHODS FOR MAKING AGE-MODULATED CELLS” (MEMORIAL SLOAN-KETTERING CANCER CENTER, priority 2023, published 2026).
At least one compound was matched to its structure with a doubt left.

Key:
[1] = tested on: APPswe/swe cortical neurons; assay: Neuron cell number by high content imaging in WT and AD (APPswe/swe) neurons; type: cell-based, human; conditions: 4 days of treatment, WT vs AD (APPswe/swe) neurons, normalized to DMSO controls
[2] = tested on: WT dopaminergic neurons; assay: Hallmarks of aging in WT dopaminergic neurons; type: cell-based; conditions: 4 days of treatment
[3] = tested on: PSC-derived neurons; assay: RNA-seq RNAge validation of age inducers in PSC-derived neurons; type: cell-based, human; conditions: 10 μM, 24 h
Procedure: Generation of human cortical neurons. Cortical neurons were generated by directed differentiation of human embryonic stem cells (H9; WA-09) maintained in E8 on vitronectin coated plates. […] After 24 h the E8 medium was replaced with E6 containing SB431542 (10 μM), LDN193189 (100 nM) and XAV939 ([…]). After three days the XAV939 was removed from the differentiation media and cells were cultured for an additional seven days in E6 containing SB431542 (10 μM), LDN193189 (100 nM). The neuroepithelium was maintained for an additional 10 days in neurobasal supplemented with N2 and B27. Media was changed daily throughout the differentiation. At DIV 20 the cultures were dissociated using Accutase to generate a single cell suspension and plated out for subsequent experiments in Neurobasal medium supplemented with B27, L-glutamine, BDNF, CAMP, ascorbic acid and GDNF (neural maintenance media). DAPT was also added to the culture medium from DIV20 to DIV30. Compounds for experimental validation of […]-based score. […] Reads were aligned to the hg19 Human transcripts using STAR (version 2.5.21b) using default parameters and resulting bam files were sorted and indexed using samtools. Gene counts were obtained using featureCounts (version 1.4.3) from sorted bam files using uniquely mapped reads. […] This score is calculated using the tissue-specific aging marker set Mk. […]

[4] = tested on: PSC-derived neurons; assay: Hallmarks of age by high content microscopy in PSC-derived neurons; type: cell-based, human
[5] = tested on: APPswe/swe cortical neurons; assay: PrestoBlue viability assay in WT and APPswe/swe neurons; type: cell-based, human; conditions: 4 days of treatment, WT vs APPswe/swe neurons, relative to DMSO

Nc1nc(F)nc2c1ncn2[C@@H]1O[C@H](CO)[C@@H](O)[C@@H]1O [Fludarabine]
neuronal loss (cell number by high content imaging) [1]: genotype-specific neuronal loss | cellular hallmarks of aging [2]: induces a subset of senescence associated induced aging hallmarks | 'Neuronal' and 'FC' RNAge subscores [3]: strongly induced aging | 'Pan' aging score [3]: weak induction | DNA damage marker yH2AX ([4]; 24 h, 10 μM): only cellular hallmark of age that changed | BAG3 ([4]; 4 days of treatment): increased | CAV1 ([4]; 4 days of treatment): unchanged | H3K9me3 ([4]; 4 days of treatment): increased rather than decreased | LAP2 ([4]; 4 days of treatment): loss | nuclear area ([4]; 4 days of treatment): unchanged | nuclear roundness ([4]; 4 days of treatment): decrease | p21 immunoreactivity ([4]; 4 days of treatment): induced | yH2AX ([4]; 4 days of treatment): further induced | neuronal viability (presto blue) [5]: AD-specific loss of neuronal viability
